Laboratory results as given in patent publication US20030203373A1 (priority 2002, published 2003).
Several values for one entry are separate records, joined by “and”; a condition that tells them apart may be missing. Identical values can stand only once. Entries after “also recorded” stand apart in the source; their conditions may differ. At least one compound was matched to its structure with a doubt left. Ends that are not written are not given here.

Tested on: normotensive Wister rats
Assay: Bradykinin-potentiating effect on blood pressure in anaesthetized normotensive rats
Assay type: in vivo, rat
Conditions: Bradykinin 2.5 × 10^−6 M alone
Protocol: In the in vivo experiments with normotensive rats the animals were previously anaesthetized and after blood pressure stabilization treated with a constant amount of bradykinin. Subsequently, either Captopril or human BPP were administered, again followed by a constant amount of bradykinin. Afterwards the maximum blood pressure drop was determined and, on the basis of bradykinin as a factor 1, the potentiating factor was determined. In the same way, the systolic and diastolic blood pressure, the percentage middle pressure decrease and the time required to come back to the baseline values were measured (see tables 4a to 4j). A detailed experimental description is given below.
2. Measurement of Blood Pressure in Normotensive and Hypertensive Rats
The trials were conducted on female anaesthetized normotensive Wister rats with weight ranging from 210 to 240 g.
The peptide pANP48-57 used for the in vivo assays was synthesized by Biosynthan (Berlin) with a HPLC-determined purity of 98%.
Anaesthetizing was performed by i.p.-administration of 1 ml/kg Ketavit (100 mg/ml)+Rampun (2%).
In order to conduct the blood pressure measurement, a polyethylene catheter was introduced into the Aorta femuralis and connected with a pressure transducer. A Statham-P23A pressure-transducer was linked to a Gould Polygraph and used to determine the arterial blood pressure. A Hg-manometer was used to calibrate the system.
All substances were dissolved and diluted in a physiological sodium chloride solution and introduced into the Vena jugularis via a catheter.
After stabilization of blood pressure (after about 10 minutes) […] body weight of a 2,5 μM bradykinin-solution (Sigma) was administered.
The middle pressure was determined from the measured diastolic (pd) and systolic (ps) blood pressure by using the following formula: pm=(ps−Pd)×0,42+pd.

Question: Which results are given for “RPPGFSPFR [Bradykinin, reference compound]”?
Answer: Blood pressure minimal, PM (middle pressure) = (Ps − Pd) × 0.42 + Pd (Rat (female) 211 g, Table 4i): 86 mm Hg; Blood pressure minimal, diastolic (Rat (female) 211 g, Table 4i): 78 mm Hg; Blood pressure minimal, systolic (Rat (female) 211 g, Table 4i): 98 mm Hg; time to reach the baseline value (Rat (female) 211 g, Table 4i): time to reach the baseline value (t = 16 s); ΔP (middle pressure drop) (Rat (female) 211 g, Table 4i): 28 mm Hg; ΔP (middle pressure drop), percentage (Rat (female) 211 g, Table 4i): 24.5%; Blood pressure minimal, PM (middle pressure) = (Ps − Pd) × 0.42 + Pd (Rat (female) 216 g, Table 4j): 53 mm Hg; Blood pressure minimal, diastolic (Rat (female) 216 g, Table 4j): 42 mm Hg; Blood pressure minimal, systolic (Rat (female) 216 g, Table 4j): 68 mm Hg; time to reach the baseline value (Rat (female) 216 g, Table 4j): time to reach the baseline value (t = 13 s); ΔP (middle pressure drop) (Rat (female) 216 g, Table 4j): 29 mm Hg; ΔP (middle pressure drop), percentage (Rat (female) 216 g, Table 4j): 35.4%; Blood pressure minimal, PM (middle pressure) = (Ps − Pd) × 0.42 + Pd (individual female rat): 51 mm Hg and 39 mm Hg and 37 mm Hg and 52 mm Hg and 47 mm Hg and 79 mm Hg; Blood pressure minimal, diastolic (individual female rat): 42 mm Hg and 30 mm Hg and 32 mm Hg and 44 mm Hg and 41 mm Hg and 70 mm Hg; Blood pressure minimal, systolic (individual female rat): 64 mm Hg and 51 mm Hg and 44 mm Hg and 62 mm Hg and 66 mm Hg and 67 mm Hg and 92 mm Hg; time to reach the baseline value (individual female rat): time to reach the baseline value (t = 19 s); also recorded: time to reach the baseline value (t = 26 s); also recorded: time to reach the baseline value (t = 11 s); also recorded: time to reach the baseline value (t = 34 s); also recorded: time to reach the baseline value (t = 22 s); also recorded: time to reach the baseline value (t = 18 s); also recorded: time to reach the baseline value (t = 36 s); ΔP (middle pressure drop) (individual female rat): 19 mm Hg and 27 mm Hg and 16 mm Hg and 20 mm Hg and 23 mm Hg and 30 mm Hg; ΔP (middle pressure drop), percentage (individual female rat): 27.1% and 41.2% and 29.8% and 28.4% and 30.9% and 39% and 25.6%; maximal drop of blood pressure (normotensive rats): 28% ± 4.5 and 31.3% ± 5.9
